{"source": "Sander's compilation of Henry's law constants (doi:10.1016/s0016-7037(99)00330-0)", "origin": "cited, not measured here", "test": "Henry solubility constant Hcp at 298.15 K (mol/(m3 Pa))", "settings": "reference: Plyasunov and Shock (2000); cited value", "data": [{"smiles": "C=CCC=C", "note": "[1,4-pentadiene]", "values": [{"measurement": "Henry solubility constant Hcp", "result": "8e-05"}]}]}
